Test results reported in US12569502B2, “Use of bile acids and derivatives thereof in preparation of GPR39 agonist” (PEKING UNIVERSITY, priority 2019, dated 2026).
A number of entries come with more than one value. The list is limited to them. An entry can have further records. Results that share an entry differ for a reason that is not stated; some may be repeats, others may stem from another dose, organism or construct than stated.

Amino acid sequences for entries named in this document (tags omitted).
UniProt Q5U431, whole entry T447P: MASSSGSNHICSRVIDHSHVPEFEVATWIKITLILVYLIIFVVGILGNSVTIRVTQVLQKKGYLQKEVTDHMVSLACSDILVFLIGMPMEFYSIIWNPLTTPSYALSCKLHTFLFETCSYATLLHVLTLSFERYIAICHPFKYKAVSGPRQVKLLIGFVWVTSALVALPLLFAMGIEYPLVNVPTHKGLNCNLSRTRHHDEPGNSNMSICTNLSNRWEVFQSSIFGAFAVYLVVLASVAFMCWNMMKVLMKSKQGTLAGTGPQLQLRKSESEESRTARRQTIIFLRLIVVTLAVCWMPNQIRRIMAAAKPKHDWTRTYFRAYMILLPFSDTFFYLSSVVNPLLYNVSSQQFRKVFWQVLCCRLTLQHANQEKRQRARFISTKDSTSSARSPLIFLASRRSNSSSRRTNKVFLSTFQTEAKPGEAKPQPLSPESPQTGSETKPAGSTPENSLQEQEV

Target: GPR39 receptors on m39-20 cell lines (Mus musculus, UniProt Q5U431, T447P)
Test: FLIPR calcium imaging on m39-20 cell lines stably expressing murine-derived GPR39
Settings: read-out: Only bile acid EC50; m39-20 cells, no zinc ions

## C[C@H](CCC(=O)NCCS(=O)(=O)O)[C@H]1CC[C@H]2[C@@H]3CC[C@@H]4C[C@H](OS(=O)(=O)O)CC[C@]4(C)[C@H]3CC[C@]12C [TLCAS]
  EC50: 71.6 µM and > 200 µM
